{"source": "patent US5593835A", "about": "“Methods and kits for RNA binding compounds” (President and Fellows of Harvard College, priority 1995, dated 1997)", "tested_on": "J6 RNA (SEQ ID NO:5)", "test": "Fluorescence binding measurements, J6 RNA", "conditions": "high affinity component, compared with literature ribosome binding", "description": "The binding of tobramycin to two cloned RNAs X1 (SEQ ID NO:2) and J6 (SEQ ID NO:5), representative of both classes of consensus sequences, was measured using the fluorescence techniques described in the exemplification.\nSteady state fluorescence measurements were performed on a double beam fluorescence spectrometer (Perkin-Elmer Model 512, Norwalk, Conn.). The excitation wavelength was 341 nm. All measurements were done at 20° C. in 140 mM NaCl, 5 mM KCl, 1 mM CaCl2, 1 mM MgCl2, and 20 mM HEPES, pH 7.4. The KD of the PYT and the RNA aptamer was calculated by the curve fitting of the fluorescence intensity as a function of RNA concentration, using the following equation\nCompetition binding measurements of antibiotics with RNA and PYT were performed at constant concentrations of PYT and RNA by monitoring fluorescence intensity changes as a function of changing concentrations of the antibiotics (a standard fluorescence curve). The KD s for the antibiotics were calculated by the curve fitting of the fluorescence intensity of PYT as a function of antibiotic concentration, using the following equation: […]", "note": "At least one read-out could not be matched to a standard name with certainty.", "data": [{"smiles": "NC[C@H]1O[C@H](O[C@H]2[C@H](O)[C@@H](O[C@H]3O[C@H](CO)[C@@H](O)[C@H](N)[C@H]3O)[C@H](N)C[C@@H]2N)[C@H](N)C[C@@H]1O", "note": "[tobramycin]", "values": [{"measurement": "times more tightly bound than by sensitive ribosomes", "value": "10^3 times"}]}]}
